Data as given in publication PMC8274477.
Results are given in words; binding and its absence hold for the method and conditions named. Some entries that bind do so weakly or less than the wild type.

Amino acid sequences for entries named in this document (tags omitted). Residues count along the entry.
UniProt O43670: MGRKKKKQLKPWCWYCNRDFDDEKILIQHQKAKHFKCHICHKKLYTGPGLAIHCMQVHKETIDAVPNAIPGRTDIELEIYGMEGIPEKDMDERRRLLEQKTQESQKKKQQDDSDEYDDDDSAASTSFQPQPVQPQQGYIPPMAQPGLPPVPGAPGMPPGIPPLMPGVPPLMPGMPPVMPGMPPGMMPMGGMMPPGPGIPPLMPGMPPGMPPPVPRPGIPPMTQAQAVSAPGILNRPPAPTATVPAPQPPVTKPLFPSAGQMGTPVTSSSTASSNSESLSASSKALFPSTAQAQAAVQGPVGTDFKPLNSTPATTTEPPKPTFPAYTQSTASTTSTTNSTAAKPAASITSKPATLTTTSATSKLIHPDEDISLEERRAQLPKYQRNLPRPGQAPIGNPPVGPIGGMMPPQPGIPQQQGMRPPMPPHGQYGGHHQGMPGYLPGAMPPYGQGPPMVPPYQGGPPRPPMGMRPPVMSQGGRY
UniProt Q9NQH7, residues 32-507: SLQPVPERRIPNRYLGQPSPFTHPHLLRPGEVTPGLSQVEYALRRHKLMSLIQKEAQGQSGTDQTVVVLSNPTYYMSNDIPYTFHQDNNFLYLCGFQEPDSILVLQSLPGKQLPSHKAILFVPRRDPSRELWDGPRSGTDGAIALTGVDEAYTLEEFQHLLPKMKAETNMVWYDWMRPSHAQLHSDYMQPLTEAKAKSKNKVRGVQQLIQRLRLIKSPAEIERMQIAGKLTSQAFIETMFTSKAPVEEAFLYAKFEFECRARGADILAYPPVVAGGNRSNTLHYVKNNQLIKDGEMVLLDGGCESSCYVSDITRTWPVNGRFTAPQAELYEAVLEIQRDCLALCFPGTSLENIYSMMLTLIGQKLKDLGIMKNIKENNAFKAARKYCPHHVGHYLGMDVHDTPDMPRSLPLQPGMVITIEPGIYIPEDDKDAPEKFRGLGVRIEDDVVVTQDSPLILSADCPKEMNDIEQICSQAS

Key:
Test in all cases: peptide or protein array; HuProt human proteome microarray; 5 ug/5 ml biotin-labelled LUBAC or OTULIN in solution, 1 h at room temperature; Cy5-streptavidin, scanned at 635 nm; BSA as negative control; hits: Z-score >= 3 and I_(Mean_Ratio) >= 1.4; both purified
ZNF207 (human) = ZNF207 (human) (UniProt O43670)
FSCB (human) = molecular target: T1, FSCB (human) (UniProt Q5H9T9)
T1 sequence: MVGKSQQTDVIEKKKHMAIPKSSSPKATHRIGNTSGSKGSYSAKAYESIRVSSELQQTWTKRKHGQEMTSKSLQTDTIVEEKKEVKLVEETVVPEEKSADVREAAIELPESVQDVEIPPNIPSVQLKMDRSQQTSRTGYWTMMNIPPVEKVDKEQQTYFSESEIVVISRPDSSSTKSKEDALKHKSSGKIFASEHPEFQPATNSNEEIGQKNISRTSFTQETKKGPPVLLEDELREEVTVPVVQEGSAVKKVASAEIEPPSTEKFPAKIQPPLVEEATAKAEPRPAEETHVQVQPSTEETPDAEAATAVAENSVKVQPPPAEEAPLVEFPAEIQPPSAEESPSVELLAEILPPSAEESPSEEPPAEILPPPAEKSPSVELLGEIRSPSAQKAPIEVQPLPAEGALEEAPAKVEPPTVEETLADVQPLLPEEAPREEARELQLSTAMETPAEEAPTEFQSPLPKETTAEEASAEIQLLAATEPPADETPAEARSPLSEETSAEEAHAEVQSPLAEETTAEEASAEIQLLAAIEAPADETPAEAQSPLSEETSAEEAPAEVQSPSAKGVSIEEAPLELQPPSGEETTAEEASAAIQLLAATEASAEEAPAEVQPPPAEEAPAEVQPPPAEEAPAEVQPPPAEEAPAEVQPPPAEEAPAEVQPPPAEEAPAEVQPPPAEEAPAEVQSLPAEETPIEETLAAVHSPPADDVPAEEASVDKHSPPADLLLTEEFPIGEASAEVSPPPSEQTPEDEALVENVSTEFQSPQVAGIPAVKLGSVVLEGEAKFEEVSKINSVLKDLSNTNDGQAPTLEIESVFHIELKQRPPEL

XPNPEP3 (human) = XPNPEP3 (human) (UniProt Q9NQH7)
RPP25 (human) = molecular target: T2, RPP25 (human) (UniProt Q9BUL9)
T2 sequence: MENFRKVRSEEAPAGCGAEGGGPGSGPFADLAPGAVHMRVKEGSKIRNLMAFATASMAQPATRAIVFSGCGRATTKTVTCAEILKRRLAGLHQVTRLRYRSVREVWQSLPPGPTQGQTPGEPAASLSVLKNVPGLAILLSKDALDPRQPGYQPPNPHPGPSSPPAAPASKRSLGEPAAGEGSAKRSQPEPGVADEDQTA

POGZ (human) = molecular target: T3, POGZ (human) (UniProt Q7Z3K3)
T3 sequence: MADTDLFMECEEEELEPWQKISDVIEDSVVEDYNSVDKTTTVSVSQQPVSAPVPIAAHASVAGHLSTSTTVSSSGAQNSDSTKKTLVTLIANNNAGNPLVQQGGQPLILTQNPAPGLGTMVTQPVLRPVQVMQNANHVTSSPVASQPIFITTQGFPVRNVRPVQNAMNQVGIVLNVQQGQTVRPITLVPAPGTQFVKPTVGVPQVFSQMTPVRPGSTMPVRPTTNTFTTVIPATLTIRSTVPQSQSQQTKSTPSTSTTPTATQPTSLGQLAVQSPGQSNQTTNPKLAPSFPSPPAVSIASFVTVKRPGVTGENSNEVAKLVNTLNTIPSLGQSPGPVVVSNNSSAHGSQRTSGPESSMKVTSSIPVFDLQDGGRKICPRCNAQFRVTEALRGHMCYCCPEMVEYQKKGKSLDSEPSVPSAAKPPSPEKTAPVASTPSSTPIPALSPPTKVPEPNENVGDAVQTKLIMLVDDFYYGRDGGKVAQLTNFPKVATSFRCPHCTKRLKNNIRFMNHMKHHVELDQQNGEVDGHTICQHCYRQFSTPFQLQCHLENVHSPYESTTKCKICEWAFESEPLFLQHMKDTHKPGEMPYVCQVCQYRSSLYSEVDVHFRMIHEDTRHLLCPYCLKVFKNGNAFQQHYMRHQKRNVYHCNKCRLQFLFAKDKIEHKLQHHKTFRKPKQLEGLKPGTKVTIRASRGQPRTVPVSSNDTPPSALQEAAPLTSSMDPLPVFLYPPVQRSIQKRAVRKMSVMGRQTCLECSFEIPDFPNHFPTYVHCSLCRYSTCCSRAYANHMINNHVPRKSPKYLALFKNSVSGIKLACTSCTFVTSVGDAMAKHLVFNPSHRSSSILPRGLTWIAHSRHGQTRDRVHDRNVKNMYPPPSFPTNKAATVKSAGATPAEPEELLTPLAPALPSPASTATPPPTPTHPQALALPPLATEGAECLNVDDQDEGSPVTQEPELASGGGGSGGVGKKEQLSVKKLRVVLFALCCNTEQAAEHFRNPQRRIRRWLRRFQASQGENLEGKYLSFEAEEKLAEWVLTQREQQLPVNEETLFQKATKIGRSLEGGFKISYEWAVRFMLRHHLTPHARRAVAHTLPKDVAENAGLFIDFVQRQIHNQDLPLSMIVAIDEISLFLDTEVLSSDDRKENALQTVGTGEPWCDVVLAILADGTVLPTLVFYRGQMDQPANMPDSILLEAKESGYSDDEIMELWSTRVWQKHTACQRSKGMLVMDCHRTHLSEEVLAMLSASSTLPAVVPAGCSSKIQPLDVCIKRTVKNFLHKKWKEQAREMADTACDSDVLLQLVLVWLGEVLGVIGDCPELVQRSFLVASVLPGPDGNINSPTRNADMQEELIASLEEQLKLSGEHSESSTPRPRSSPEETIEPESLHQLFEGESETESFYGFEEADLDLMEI

- binding (ZNF207 (human)): binds
- binding (FSCB (human)): binds
- binding (XPNPEP3 (human)): binds
- binding (RPP25 (human)): binds
- binding (POGZ (human)): binds
Substance: linear ubiquitin chain assembly complex (LUBAC), purified as HIS-tagged HOIP with the subunit HOIL-1, biotin-labelled (from UniProt Q96EP0 1-1072; Q9BYM8 1-510)
